Results from patent publication US11963964B2, “Small molecules for mouse satellite cell proliferation” (President and Fellows of Harvard College, priority 2011, dated 2024).
“Also recorded” adds a separate entry of the source. At least one structure is not confirmed: it was looked up by name or label, or the drawing left a doubt.

Key:
[1] = tested on: satellite cells from aged and young tissue; experiment: Proliferation of satellite cells from aged and young mice; assay type: cell-based, mouse; details: for increase in the number of cells: 50 nM CEP701, imaged Day 6
satellite cells [2] = experiment: Satellite cell proliferation screen and dose response, image-based cell count; parameters: species or system mouse
satellite cells (SMPs) [3] = experiment: Differentiation of compound-treated SMPs into myotubes (myosin heavy chain staining); assay type: cell-based, mouse; details: compound in proliferation conditions, then differentiation media
satellite cells (SMPs) [4] = experiment: Satellite cell (SMP) proliferation with or without bFGF, 300 cells/well; assay type: cell-based, mouse; details: compound plus bFGF versus bFGF alone (FIGS. 15-17, 28, 29)
myoblasts = experiment: Myoblast differentiation in differentiation media (5% horse serum); assay type: cell-based; details: differentiation media comprising 5% horse serum (FIG. 39)
human satellite cells = experiment: Expansion of human satellite cells; assay type: cell-based
satellite cells [5] = experiment: Satellite cell proliferation in combination with TGF-beta inhibitor (Alk5 inhibitor II); assay type: cell-based, mouse; details: compound plus Alk5 inhibitor II (FIGS. 21, 32)
primary fibroblasts = experiment: Specificity test on Sca1-positive fibroblasts (Ki67); assay type: cell-based, mouse
[6] = tested on: regenerating muscle fibers and satellite cells; experiment: In vivo muscle regeneration after CTX injury, subcutaneous CEP701; parameters: species or system mouse; details: post-CTX injury, adult and aged mice (FIGS. 42B-42D)

Row | SMILES | proliferation of aged satellite cells in vitro ([1]; FIG. 36) | increase in the number of cells ([1]; aged cells (15 months old mice)) | increase in cell number, CEP701 and bFGF together ([1]; cultures of old cells) | increase in the number of cells ([1]; young cells) | effective doses (satellite cells [2]; in vitro satellite cell proliferation (FIG. 35)) | activity on in vitro satellite cell proliferation (in words) (satellite cells [2]; screen hits tested in dose response / retest) | ability of treated cells to differentiate and fuse to form myotubes (satellite cells (SMPs) [3]) | ability of treated cells to differentiate and fuse to form myotubes (satellite cells (SMPs) [3]; listed as Flt3 Kinase inhibitor) | additive or synergistic action with bFGF (satellite cells (SMPs) [4]) | myoblast differentiation (myoblasts) | expansion of human satellite cells (in words) (human satellite cells) | additive effect with TGF-beta inhibitor (Alk5 inhibitor II) (satellite cells [5]) | percentage of proliferating (Ki67) cells versus DMSO (primary fibroblasts; 500 or 3000 fibroblasts/well, fixed five days after plating (FIG. 22)) | effect on fibroblast proliferation (primary fibroblasts; primary fibroblasts (FIG. 23), listed as Lestaurtinib) | regenerating fiber size in vivo [6] | satellite cell number in vivo [6]
1 | C[C@]12O[C@H](C[C@]1(O)CO)n1c3ccccc3c3c4c(c5c6ccccc6n2c5c31)CNC4=O [CEP701, Lestaurtinib] | increased proliferation of aged satellite cells in vitro | six-fold | ten-fold | six-fold | effective at nanomolar doses | active in the retest; also recorded: increase in vitro satellite cell proliferation | did not affect the ability of expanded SMPs to differentiate and fuse to form myotubes | able to form myotubes | work additively with bFGF | drive myoblast differentiation | increased proliferation of human satellite cells | little additive effect | no difference in the percentage of proliferating cells | did not increase proliferation of fibroblasts | increased | increased
2 | CCN(CC)CCNC(=O)c1c(C)[nH]c(/C=C2\C(=O)Nc3ccc(F)cc32)c1C [Sunitinib] |  |  |  |  |  |  | did not affect the ability of expanded SMPs to differentiate and fuse to form myotubes |  |  | drive myoblast differentiation |  |  |  |  |  | 
